Results published in patent US20140234351A1, “CANCER VACCINES AND VACCINATION METHODS” (ImmunoCellular Therapeutics, Ltd., priority 2013, published 2014).
Entries after “also recorded” stand apart in the source; their conditions may differ. Part of at least one peptide drawing is inferred or uncertain, most often the ends. Where no end group is shown, it is not given here.

Assays:
[1] = biological target: HLA-A*0201 molecules on T2 cells (Homo sapiens, UniProt P04439, D140Y/D185E/D98H/E176V/E277Q/G131W/G231S/I119V/I121R/I166T/I218V/L300P/L318F/N151K/N90K/P208A/P217A/Q86G/Q94H/R138H/R169H/T345S); assay: T2 cell binding assay of HLA-A2 peptides; details: peptide 75 μg/ml; for binding with T2 cells (affinity in words): conclusion of Example 11
[2] = test system: T2 cells pulsed with peptides; assay: IFN-γ ELISPOT assay of the antigen-specific T cell response; format: cell-based, human; details: CTL co-cultured with T2 pulsed with 10 μg/ml of peptides, 20 hours, FIG. 10
[3] = Immunogenicity in vitro of A2 peptide epitopes (Table 1); format: cell-based; details: Table 1, no method given

With TLADFDPRV [EphA2p883] the “binding with T2 cells (affinity in words)” value [1] was “high affinity binding”, the “affinity to HLA-A*0201 molecules (up-regulation of HLA-A*0201 molecules)” value ([1]; overnight, FIG. 5A) was “high affinities” and the “antigen-specific T cell response (IFN-γ ELISPOT)” value [2] was “efficiently recognize T2 pulsed with these antigens and boost the T cell immune response; also recorded: efficiently recognize these antigens containing epitopes and induce T2 cell immune response”. The Immunogenicity in vitro [3] was “Yes”.

With CSCC[C@H](NC(=O)[C@@H](N)C(C)C)C(=O)N[C@@H](C)C(=O)NCC(=O)N[C@H](C(=O)NCC(=O)N[C@@H](CO)C(=O)N1CCC[C@H]1C(=O)N[C@@H](Cc1ccc(O)cc1)C(=O)N[C@H](C(=O)O)C(C)C)C(C)C [HER2p773] the “binding with T2 cells (affinity in words)” value [1] was “high affinity binding”, the “antigen-specific T cell response (IFN-γ ELISPOT)” value [2] was “efficiently recognize T2 pulsed with these antigens and boost the T cell immune response; also recorded: efficiently recognize these antigens containing epitopes and induce T2 cell immune response” and the Immunogenicity in vitro [3] was “Yes”.
